Results are given in words; binding and its absence hold for the method and conditions named. Some results given as binding are weak or reduced against the parent protein; the word gives no strength.
Molecular target: human 4-1BBL expressed on transfected P815 cells (P815-4-1BBL) (human) (UniProt P41273)
Assay: staining of P815 clones expressing human 4-1BBL (data not shown)

By UniProt entry, the sequences of proteins in these tests, tags left out. Residues count along the entry.
UniProt P41273: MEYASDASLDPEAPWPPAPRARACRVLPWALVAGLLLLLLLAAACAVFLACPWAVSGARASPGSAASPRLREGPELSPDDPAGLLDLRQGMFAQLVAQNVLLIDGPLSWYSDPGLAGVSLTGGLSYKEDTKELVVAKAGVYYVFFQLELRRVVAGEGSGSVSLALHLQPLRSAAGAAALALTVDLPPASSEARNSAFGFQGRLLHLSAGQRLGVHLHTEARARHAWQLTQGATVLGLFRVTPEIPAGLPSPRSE
UniProt Q07011, residues 24-186: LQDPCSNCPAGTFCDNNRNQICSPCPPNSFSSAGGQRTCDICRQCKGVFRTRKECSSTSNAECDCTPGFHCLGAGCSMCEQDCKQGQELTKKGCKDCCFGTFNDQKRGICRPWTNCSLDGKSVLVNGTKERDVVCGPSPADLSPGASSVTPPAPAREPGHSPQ

binding: binds
Substance: human 4-1BB fusion protein (from UniProt Q07011 24-186)

Source: patent US20120076722A1
